{"source": "patent US20090104122A1", "about": "“DETECTION OF MEMBRANE ANDROGEN RECEPTOR (mAR) AGENTS” (priority 2006, published 2009)", "tested_on": "LNCaP-inoculated nude mice", "test": "In vivo tumor growth in LNCaP-inoculated nude mice", "details": "anti-androgen", "note": "For at least one compound, name, drawing or mass did not settle the structure."}
{"molecule": "CC(C)C(=O)Nc1ccc([N+](=O)[O-])c(C(F)(F)F)c1", "note": "[flutamide]", "values": [{"measurement": "tumor-size reduction effect", "result": "not observed"}]}
